This passage reports cell number change and AC50 results from PubChem BioAssay AID2685 (National Center for Advancing Translational Sciences (NCATS), 2010).

The nature of this test: qHTS Assay for Lipid Storage Modulators in Drosophila S3 Cells.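 As to cell number change: cells counted by Cell Tracker Red CMTPX staining in the red channel.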 The conditions noted are these: BODIPY lipid droplet fluorescence, 18-24 h; for cell number change: measured here: cell count max response, cells fed with added oleic acid. The method in brief:
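Drosophila S3 cells loaded with oleic acid (400 uM, as added) and compounds at several concentrations; lipid droplets imaged by 488-nm laser-scanning cytometry, 500–530 nm intensity and object ratio to cell channel. Percent activity normalized to 20 uM Triacsin C.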
On the technique in general: Quantitative high-throughput screening tests each substance at several concentrations.

[1] abbreviates: measured here: lipid fluorescence (Fed channel) AC50, cells fed with added oleic acid.
The mark [2] stands for this setting: measured here: cell number channel AC50, cells fed with added oleic acid.

Some of the results follow. These are further read-outs of the screen, such as a control signal, another cell line or another target. No call is given for them. Compounds called inactive in the main read-out are mostly missing here. Words in brackets tell the shape of the fitted curve; partial curves, single points and poor fits give uncertain potencies.

As a reminder, the AC50 is the midpoint of the concentration-response curve, whichever way the signal moves.

In the case of `O=C(Nc1ccc(N2CCOCC2)c2nonc12)C1CCCC1`, the cell number change is -4.5%. For the same compound, the AC50 under setting [1] was 2.06 µM [rising, partial curve]. As for `CC(C)CCn1nnnc1C(c1ccc(N(C)C)cc1)N1CCN(C(=O)c2ccco2)CC1` (stereo not drawn), the cell number change was 12.5%. Besides, the AC50 under setting [1] is 13 µM [rising, partial curve].

For `O=S(=O)(NCc1cn2ccccc2n1)c1cccs1`, the cell number change is -1.45%. The AC50 under setting [2] is 3.26 µM [rising, single point]. The AC50 under setting [1] was 1.84 µM [rising, partial curve]. Take `O=C1N/C(=C/c2ccco2)C(=O)N1Cc1ccccc1F`: the cell number change is -4.49%. For the same compound, the AC50 under setting [1] was 1.64 µM [rising, full curve].

For `O=C(c1ccco1)N(Cc1cc2ccccc2[nH]c1=O)CC1CCCO1` (stereo not drawn), the cell number change is 11.8%. Under setting [1], the AC50 is 0.326 µM [rising, partial curve, poor fit]. `CCC(C)n1c(SC(C)C#N)nc2ccccc2c1=O` (stereo not drawn): the cell number change is -3.11%. Moreover, the AC50 under setting [1] is 4.11 µM [rising, full curve, poor fit]. On to `O=C(CN1C2=NCCCN2c2ccccc21)c1ccc([N+](=O)[O-])cc1`, for which the cell number change is -22.2%. Besides, under setting [1], the AC50 was 0.411 µM [falling, partial curve, poor fit]. In the case of `c1ccc(Cn2c[n+](Cc3ccccc3)cn2)cc1`, the cell number change is -19.6%. Also, the AC50 under setting [2] is 4.61 µM [falling, full curve, poor fit]. Under setting [1], the AC50 is 29.1 µM [falling, single point]. For the compound `O=C(NCCc1ccccc1)c1c(F)cccc1F`, the cell number change was 4.77%. In addition, under setting [1], the half-maximal activity concentration (AC50) is 18.4 µM [rising, single point].

Consider `O=[N+]([O-])c1cccc2c(N3CCCC3)ccnc12`, for which the cell number change is -31.1%. Also, the AC50 under setting [2] was 20.6 µM [falling, single point]. For the same compound, the AC50 under setting [1] was 23.1 µM [falling, single point]. Consider `COCc1cc(=O)[nH]c(/N=C(\N)Nc2ccccc2C)n1`, for which the AC50 under setting [1] is 2.91 µM [rising, partial curve].

For `O=C(COc1ccc(F)cc1)NCCN1CCCC1`, the cell number change is -19.1%. For the same compound, under setting [1], the AC50 is 32.6 µM [falling, single point]. For `Cc1ccc(S(=O)(=O)N2CCN(C(=O)CCn3nc(C)c(C)c3C)CC2)cc1C`, the cell number change turned out to be 5.56%. The AC50 under setting [1] was 29.1 µM [rising, partial curve, poor fit]. `Cc1ccccc1-n1nc2c(c1NC(=O)c1cc3ccccc3o1)CS(=O)(=O)C2`: the cell number change is -9%.

With `Cc1ccc(NC(=O)Nc2ccc3c(c2)N(C)C(=O)CS3)cc1C`, the cell number change is -35.2%. In addition, under setting [2], the half-maximal activity concentration (AC50) is 32.6 µM [falling, single point]. Under setting [1], the AC50 was 20.6 µM [falling, single point]. `Cc1ccc(N(Cc2ccccc2)C(=O)c2cccc(S(=O)(=O)N3CC(C)OC(C)C3)c2)cc1` (stereo not drawn): the cell number change was 2.18%. For the same compound, under setting [1], the AC50 is 6.51 µM [rising, single point]. Turning to `Cc1ccc2c(c1)CCCN2C(=O)c1cccs1`, the AC50 under setting [1] is 29.1 µM [rising, single point]. As for `CCOC(=O)CC1C(=O)NCCN1S(=O)(=O)c1ccc(NC(C)=O)cc1` (stereo not drawn), the cell number change is -18.4%. As to `COc1ccc(/C(C)=N/NS(=O)(=O)c2ccccc2)c(OC)c1`, the cell number change was found to be 0.883%. Take `CC(C)(C)c1ccc(OCC(=O)NNC(=O)Cc2cccs2)cc1`: the cell number change was -22%. As to `Cc1ccccc1-n1c(SCc2c(C)noc2C)nnc1-c1ccncc1`, the AC50 under setting [1] is 6.51 µM [falling, single point]. For the compound `COc1ccc(OC)c(N2Cc3cc(C)c(C)cc3C2)c1`, the cell number change amounted to 102%. For the same compound, the AC50 under setting [2] is 14.6 µM [rising, partial curve]. Under setting [1], the AC50 is 6.51 µM [rising, single point]. Turning to `Oc1ccccc1-c1nc2ccccc2nc1-c1ccccc1`, the cell number change stood at 8.54%.

Turning to `COc1ccc(CCN2C(=O)C3C4CC(C5C(C(N)=O)=NOC45)C3C2=O)cc1OC` (stereo not drawn), the cell number change was -87.2%. For the same compound, the half-maximal activity concentration (AC50) under setting [2] is 23.1 µM [falling, partial curve, poor fit]. For the same compound, the concentration at half-maximal activity (AC50) under setting [1] was 18.4 µM [falling, partial curve]. In the case of `CC1CCC(NC(=O)COC(=O)c2ccco2)CC1` (stereo not drawn), the cell number change turned out to be 1.25%. In addition, the AC50 under setting [1] is 2.06 µM [rising, partial curve]. Consider `COc1ccccc1N1C(=O)CC1(C#N)c1ccc(OCc2ccccc2)cc1` (stereo not drawn), for which the cell number change was determined as 59%. The AC50 under setting [2] was 29.1 µM [rising, single point].

`NC(=O)CC(NC(=O)Cc1ccc(Br)cc1)c1ccc(NCCc2ccccc2F)c([N+](=O)[O-])c1` (stereo not drawn): the cell number change turned out to be 17.1%. The AC50 under setting [1] is 4.11 µM [rising, single point]. Turning to `CCOC(=O)N1CCC(NC(=O)COc2cc(=O)n(C)c3ccccc23)CC1`, the cell number change is -4.97%. Moreover, the AC50 under setting [1] is 6.51 µM [rising, single point]. `CCOc1ccc(N(CC(=O)Nc2ccccc2OC)S(C)(=O)=O)cc1`: the cell number change worked out at 15.5%. Take `Cc1cc([N+](=O)[O-])ccc1NC(=O)Cc1ccc(F)cc1`: the cell number change was -32.6%. Also, under setting [2], the AC50 is 7.31 µM [falling, partial curve].

Take `CCSc1nnc(NC(=O)[C@@H](NC(=O)c2cc(OC)cc(OC)c2)C(C)C)s1`: the cell number change came to 20%. Besides, the AC50 under setting [1] is 29.1 µM [falling, single point]. On to `CC1CCN(C(=O)C2(NC(=O)Nc3cccc(F)c3)CCCCC2)CC1`, for which the cell number change is -6.13%. Moreover, the AC50 under setting [1] was 3.66 µM [falling, partial curve, poor fit].

`CCOC(=O)c1sc(N)c(C(=O)OCC)c1COC(=O)C1CC(=O)N(Cc2ccco2)C1` (stereo not drawn): the cell number change is -10%. For the same compound, the AC50 under setting [1] is 1.46 µM [rising, full curve]. `CCN(CC)S(=O)(=O)c1cccc(NC(=O)CNC2CCCCCC2)c1`: the cell number change was 24.8%. Also, under setting [1], the AC50 is 1.3 µM [rising, full curve, poor fit].

As to `COc1cc(/C=C/C(=O)O)ccc1OCc1ccccc1C#N`, the cell number change amounted to 6.14%. In addition, the AC50 under setting [1] is 10.3 µM [rising, partial curve, poor fit]. As to `Cc1ccc(S(=O)(=O)/N=C(/Nc2c(C)n(C)n(-c3ccccc3)c2=O)c2ccc(Cl)cc2)cc1`, the cell number change is -36%. In addition, the AC50 under setting [2] is 5.8 µM [falling, full curve].

With `N/C(=N\O)c1ccccc1N1CCCCC1`, the cell number change was found to be 1.69%. Besides, the AC50 under setting [1] was 29.1 µM [rising, partial curve, poor fit]. Consider `CN1CCC(=NNC(=O)CN(c2cccc(Cl)c2)S(C)(=O)=O)CC1`, for which the cell number change turned out to be 7.36%. Moreover, the AC50 under setting [1] was 4.61 µM [falling, single point]. Consider `COCCCN(CC(=O)O)S(=O)(=O)c1cccc(Cl)c1`, for which the cell number change was -21.3%. In addition, under setting [1], the AC50 is 6.51 µM [falling, partial curve, poor fit]. For `Cc1[nH]c2ccccc2c1/C=N/Nc1nc2ccccc2[nH]1`, the cell number change was -61.5%. Under setting [2], the concentration at half-maximal activity (AC50) was 0.58 µM [falling, full curve]. Also, under setting [1], the AC50 is 0.58 µM [falling, full curve]. Consider `c1ccc(CSc2nnc3ccc(-c4ccncc4)nn23)nc1`, for which the cell number change was 5.92%. `CN1C/C(=C/c2cccs2)C(=O)/C(=C\c2cccs2)C1`: the cell number change amounted to 0.794%. Moreover, the AC50 under setting [1] was 2.59 µM [falling, partial curve, poor fit].

As to `Cn1c(O)c(N=NC(=O)c2cc(-c3cccs3)nc3ccccc23)c2ccccc21`, the cell number change is -7.61%. Consider `CC(/C=C1\SC(=S)N(CCC(=O)Nc2ccccc2O)C1=O)=C\c1ccccc1`, for which the cell number change stood at 19.4%. In addition, the AC50 under setting [1] was 1.64 µM [rising, partial curve, poor fit].

Regarding `CCOC(=O)c1[nH]c2ccccc2c1NC(=O)Nc1ccc(OC)cc1`, the AC50 under setting [2] was 2.59 µM [rising, single point]. In the case of `COc1ccc(NS(=O)(=O)c2cccc(NC(=O)CNC(C)=O)c2)cc1`, the cell number change is -19.5%. Further, the AC50 under setting [1] is 13 µM [falling, partial curve, poor fit].

With `O=C(Cc1ccc(F)cc1)NCCS(=O)(=O)N1CCN(c2ccccc2)CC1`, the cell number change was -3.55%. Besides, the AC50 under setting [1] is 0.651 µM [falling, single point]. With `Nc1c(N2CCN(c3ccccc3)CC2)c2ccccc2oc1=O`, the cell number change was determined as 18.4%. In addition, the AC50 under setting [2] is 1.16 µM [rising, full curve, poor fit]. Turning to `COc1ccc(OCC(=O)N/N=C(\CCC(=O)O)c2cccs2)cc1`, the cell number change turned out to be 21.3%. On to `COc1cc(OC)cc(C(=O)N2CCN=C2SCc2cccnc2)c1`, for which the cell number change was found to be 14%. Regarding `COC(=O)c1ccccc1NC(=O)C1CCN(S(=O)(=O)c2cc(OC)ccc2OC)CC1`, the cell number change amounted to 128%. The AC50 under setting [2] was 7.31 µM [rising, partial curve]. In addition, the AC50 under setting [1] was 6.51 µM [rising, single point].

Turning to `Cc1ccc(N(C(=O)CNC(=O)c2ccco2)C(C(=O)NCC2CCCO2)c2ccccc2)c(C)c1` (stereo not drawn), the cell number change was -2.08%. Same read-out and setting: for `Cc1nnsc1C(=O)N1CCN(c2ccc(C#N)cn2)CC1` the value was -27.9%. With `Cn1c(N)c(C(=O)CSc2n[nH]c(-c3ccccc3)n2)c(=O)n(C)c1=O`, the cell number change was determined as 40.3%. Besides, the AC50 under setting [2] was 29.1 µM [rising, single point]. Consider `O=C(O)CC1Sc2nc3ccccc3n2C1=O` (stereo not drawn), for which the cell number change was -14%. Moreover, the AC50 under setting [1] was 0.13 µM [falling, full curve]. Take `COc1ccc(C(O)P(=O)(OCC(C)C)c2ccc(N(C)C)cc2)c(OC)c1` (stereo not drawn): the cell number change is -8.33%. As for `COC(=O)C1=CN(C)C=C(C(=O)OC)C1c1ccsc1`, the cell number change was -26.2%. Besides, the concentration at half-maximal activity (AC50) under setting [1] was 20.6 µM [falling, partial curve]. For the compound `COc1ccc(C(C)=O)cc1CSc1nc2cc(C(=O)O)ccc2c(=O)n1Cc1ccccc1`, the cell number change was 22.8%. In addition, the AC50 under setting [1] was 20.6 µM [rising, single point].

As to `CCN1C(=O)C(CC(=O)Nc2ccc(OC)cc2)N(CCc2ccc(OC)cc2)C1=S` (stereo not drawn), the cell number change was -155%. The AC50 under setting [2] is 29.1 µM [falling, single point]. The AC50 under setting [1] is 29.1 µM [falling, single point]. Consider `CCN(CC)C(=O)CSc1nc(-c2ccc(C)cc2)nc2c1COC(C)(C)C2`, for which the cell number change was found to be 19.6%. In addition, the AC50 under setting [2] was 2.59 µM [rising, single point]. Moreover, the AC50 under setting [1] is 2.59 µM [rising, full curve].

For `CCCC(=O)n1nc(-c2cccnc2)nc1NCc1ccc(OC)cc1`, the cell number change is -12.3%. For the same compound, the AC50 under setting [2] is 0.58 µM [falling, partial curve, poor fit]. Also, the AC50 under setting [1] was 6.51 µM [falling, single point]. Take `O=C(CNC(=O)C(c1ccccc1)c1ccccc1)N/N=C\c1ccc2c(c1)OCO2`: the AC50 under setting [2] is 2.06 µM [rising, single point] and the AC50 under setting [1] is 23.1 µM [falling, partial curve, poor fit].
